Assay results taken from PMC9815587, “The structure of the human LACTB filament reveals the mechanisms of assembly and membrane binding” (PLOS Biology, 2022).
Results are given in words; binding and its absence hold for the method and conditions named.

Legend:
[1] = target: human LACTB (residues 97 to 547) E149R-N150A double mutant (human) (UniProt P83111); test: negative-stain TEM; SEC peak fractions diluted to approximately 2.0 μm (so in the source), 0.75% uranyl formate, Tecnai T12 at 100 kV; self-assembly into filaments; both purified
[2] = target: human LACTB (residues 97 to 547) E149R-N150A double mutant (human) (UniProt P83111); test: SEC; Superose 6 Increase 10/300 GL; 20 mM HEPES-NaOH (pH 7.5), 140 mM NaCl, 10 mM KCl, 1 mM MgCl2, 1 mM DTT; self-assembly, filaments elute within the void volume; both purified
[3] = target: human LACTB (residues 97 to 547) I368A-N370A-R371E triple mutant (human) (UniProt P83111); test: negative-stain TEM; SEC peak fractions diluted to approximately 2.0 μm (so in the source), 0.75% uranyl formate, Tecnai T12 at 100 kV; self-assembly into filaments; both purified
[4] = target: human LACTB (residues 97 to 547) I368A-N370A-R371E triple mutant (human) (UniProt P83111); test: SEC; Superose 6 Increase 10/300 GL; 20 mM HEPES-NaOH (pH 7.5), 140 mM NaCl, 10 mM KCl, 1 mM MgCl2, 1 mM DTT; self-assembly, filaments elute within the void volume; both purified

Binder | binding [1] | binding [2] | binding [3] | binding [4]
human LACTB (residues 97 to 547) E149R-N150A double mutant (enzyme, UniProt P83111 97-547) APPCSRCFARAIESSRDLLHRIKDEVGAPGIVVGVSVDGKEVWSEGLGYADVRARVPCKPETVMRIASISKSLTMVALAKLWEAGKLDLDIPVQHYVPEFPEKEYEGEKVSVTTRLLISHLSGIRHYEKDIKKVKEEKAYKALKMMKENVAFEQEKEGKSNEKNDFTKFKTEQENEAKCRNSKPGKKKNDFEQGELYLREKFENSIESLRLFKNDPLFFKPGSQFLYSTFGYTLLAAIVERASGCKYLDYMQKIFHDLDMLTTVQEENEPVIYNRARFYVYNKKKRLVNTPYVDNSYKWAGGGFLSTVGDLLKFGNAMLYGYQVGLFKNSNENLLPGYLKPETMVMMWTPVPNTEMSWDKEGKYAMAWGVVERKQTYGSCRKQRHYASHTGGAVGASSVLLVLPEELDTETINNKVPPRGIIVSIICNMQSVGLNSTALKIALEFDKDRSD | no binding (tested: approximately 2.0 μm (so in the source)) | no binding | – | –
human LACTB (residues 97 to 547) I368A-N370A-R371E triple mutant (enzyme, UniProt P83111 97-547) APPCSRCFARAIESSRDLLHRIKDEVGAPGIVVGVSVDGKEVWSEGLGYADVENRVPCKPETVMRIASISKSLTMVALAKLWEAGKLDLDIPVQHYVPEFPEKEYEGEKVSVTTRLLISHLSGIRHYEKDIKKVKEEKAYKALKMMKENVAFEQEKEGKSNEKNDFTKFKTEQENEAKCRNSKPGKKKNDFEQGELYLREKFENSIESLRLFKNDPLFFKPGSQFLYSTFGYTLLAAIVERASGCKYLDYMQKIFHDLDMLTTVQEENEPVAYAEARFYVYNKKKRLVNTPYVDNSYKWAGGGFLSTVGDLLKFGNAMLYGYQVGLFKNSNENLLPGYLKPETMVMMWTPVPNTEMSWDKEGKYAMAWGVVERKQTYGSCRKQRHYASHTGGAVGASSVLLVLPEELDTETINNKVPPRGIIVSIICNMQSVGLNSTALKIALEFDKDRSD | – | – | no binding (tested: approximately 2.0 μm (so in the source)) | no binding
